For at least one compound, name, drawing or mass did not settle the structure.
Key:
Assay type in all cases: cell-based, human
OC mRNA = assay: Semi-quantitative RT-PCR of endogenous OC mRNA; details: PC3 and MG63 cells; FSK 10^−6 M
Procedure: (§1) Reverse Transcription-Polymerase Chain Reaction (RT-PCR) Analysis. Total RNA was isolated from confluent monolayers of cells using RNAZol B (Teltest Inc., Friendswood, Tex.). Five μg of total RNA was used as template and 0.15 μg of random hexanucleotide primers were added for reverse transcription and amplification in a reaction volume of 20 μl, according to the manufacturer's instruction (Invitrogen, Carlsbad, Calif.). After RT reaction, 3-5 μl of the 1st-strand cDNA was used for PCR with a PTC-100 programmable Thermal Controller (MJ Research Inc.). The oligonucleotide primer sets used for PCR analysis of cDNA are: hOC, 5′-[…]-3′ (forward) and 5′-[…]-3′ (reverse); hBSP, 5′-[…]-3′ (forward) and 5′-[…]-3′ (reverse); and glyceraldehyde phosphate dehydrogenase (GAPDH), 5′-[…]-3′ (forward) and 5′-[…]-3′ (reverse), respectively. The thermal profile for hOC amplification is 30 cycles starting with denaturation 1 min at 94° C., followed by 1 min of annealing at 55° C. and 1 min of extension at 72° C. […] The RT-PCR products were analyzed by 1.2% agarose gel electrophoresis. Quantity one-4.1.1 Gel Doc gel documentation software (Bio-Rad) or NIH image were used for quantification of hOC and hBSP mRNA expression normalized by GAPDH mRNA expression.

VEGF = VEGF expression in prostate cancer cells after PKA agonist; details: Forskolin 10 μM (data not shown)
[1] = tested on: CRE-nuclear protein (CREB) complexes; assay: Electrophoretic mobility shift assay (EMSA) with 32P-labeled CRE probe and nuclear extracts of treated cells; details: nuclear extracts of C4-2B cells; ARCaP CM 15 μg/ml or FSK 10^−5 M, 16 h
Procedure: Electrophoretic Mobility Shift Assay (EMSA). A LNCaP-lineaged metastatic human prostate cancer cell line, C4-2B, and the human osteosarcoma cell line MG63 were plated in 15-cm diameter tissue culture dishes in T-medium (with 5% serum) until 80% confluence. Cells were then switched to 1-day complete serum-free condition and then treated with or without ARCaP CM (15 μg/ml) or FSK (10^−5 M) for an additional 16 h. Nuclear extracts were prepared from C4-2B and MG63 for EMSA as described by Ausubel et al (37). Briefly, cells were washed with cold PBS twice, harvested and homogenized in hypotonic buffer (10 mM HEPES, pH 7.9, 1.5 mM MgCl2, 10 mM KCl, 0.5 mM DTT and 0.2 mM PMSF). After centrifugation, the nuclear pellets were stirred and incubated for 30 min in high-salt buffer (20 mM HEPES, pH 7.9, 25% glycerol, 1.5 mM MgCl2, 1.2 M KCl, 0.2 mM EDTA, 0.5 mM DTT and 0.2 mM PMSF) on ice. The nuclear pellets were centrifuged, and the nuclear extract supernatants were dialyzed twice against dialysis buffer (20 mM HEPES, pH 7.9, 20% glycerol, 100 mM KCl, 0.2 mM EDTA, 0.5 mM DTT and 0.2 mM PMSF) overnight. The concentration of nuclear proteins was determined by the Bradford method using Coomassie plus protein reagent (Pierce). Synthetic oligonucleotides were purified by PAGE. Appropriate pairs were annealed by heating up to 95° C. for 10 min and naturally cooled down to room temperature. […]

hOC promoter = assay: hOC promoter-luciferase reporter activity in transfected cells; details: C4-2B cells; db cAMP 10^−6 to 10^−3 M, FSK 10^−8 to 10^−5 M; 16 h; concentration-dependent
Excerpt: (§2) Plasmid Construction. Genomic DNA was used in the PCR of the 0.8-kb hOC promoter inserting KpnI and XhoI sites, subsequently cloned into pGL3-Basic-luciferase reporter vector (Promega, Madison, Wis.) as described before (9). The deletion constructs, ΔA [374 bp upstream of AP1/VDRE (AV) element], ΔTst-1 (POU-factor Tst-1/Oct-6 binding site), ΔCRE (cAMP-responsive element) and ΔIRF-1 (interferon regulatory factor-i binding site) in hOC promoter/pGL3 were generated by recombinant PCR technique. The point mutation plasmids in CRE (from -643 to -636 in hOC promoter, 5′-[…]-3′) were constructed with a QuikChange Site-Directed Mutagenesis Kit (Stratagene). […]
(§3) Transfection and Luciferase Activity Assay. […] For luciferase activity assay, 20 μl of the lysate supernatant was mixed with 100 μl of the luciferase substrate (Promega) and detected by a luminometer (Monolight 3010, luminometer PharMingen, San Diego, Calif.). For β-galactosidase activity assay, 100 μl of the supernatant was mixed with 100 μl of 2×β-galactosidase substrate [200 mM sodium phosphate buffer, pH 7.3, 2 mM MgCl2, 100 mM β-mercaptoethanol and 1.33 mg/ml o-nitrophenyl-β-D-galactopyranoside (ONPG)], and incubated at 37° C. for 30 min. β-galactosidase activity was detected by Microplate spectrophotometer (Molecular Devices Corp., Sunnyvale, Calif.) at 405 nm wavelength. […]

hBSP promoter = assay: hBSP promoter-luciferase reporter activity in transfected cells; details: C4-2B cells; db cAMP 10^−6 to 10^−3 M, FSK 10^−8 to 10^−5 M; 16 h; concentration-dependent
Excerpt: as §2, §3

BSP mRNA = assay: Semi-quantitative RT-PCR of endogenous BSP mRNA; details: PC3 and MG63 cells; FSK 10^−6 M
Procedure: as §1

## C=C[C@@]1(C)CC(=O)[C@]2(O)[C@@]3(C)[C@@H](O)CCC(C)(C)[C@@H]3[C@H](O)[C@H](OC(C)=O)[C@@]2(C)O1 [FSK, forskolin]
OC mRNA
  OC mRNA expression elevated: not
VEGF
  VEGF expression: increased
[1]
  specific CRE-nuclear protein complex formation: strongly enhanced
hOC promoter
  hOC promoter activity, effect of PKA pathway activators: stimulated
hBSP promoter
  hBSP promoter activity, effect of PKA pathway activators: stimulated
BSP mRNA
  BSP mRNA expression elevated: not
